Amino acid sequences for entries named in this document (tags omitted). Residues count along the entry.
UniProt P43220, residues 24-463: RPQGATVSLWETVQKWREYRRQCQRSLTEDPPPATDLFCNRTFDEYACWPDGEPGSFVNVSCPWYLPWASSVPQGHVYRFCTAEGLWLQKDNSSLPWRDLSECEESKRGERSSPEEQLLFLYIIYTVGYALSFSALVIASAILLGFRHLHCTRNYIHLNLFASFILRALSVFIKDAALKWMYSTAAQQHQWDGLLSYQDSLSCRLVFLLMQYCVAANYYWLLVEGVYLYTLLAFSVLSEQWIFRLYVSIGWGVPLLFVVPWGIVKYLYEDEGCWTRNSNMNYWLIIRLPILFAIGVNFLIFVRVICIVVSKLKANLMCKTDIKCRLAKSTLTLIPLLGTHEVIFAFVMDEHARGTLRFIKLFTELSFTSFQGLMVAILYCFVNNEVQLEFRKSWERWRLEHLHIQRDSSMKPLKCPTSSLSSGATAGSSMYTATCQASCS
UniProt P81377: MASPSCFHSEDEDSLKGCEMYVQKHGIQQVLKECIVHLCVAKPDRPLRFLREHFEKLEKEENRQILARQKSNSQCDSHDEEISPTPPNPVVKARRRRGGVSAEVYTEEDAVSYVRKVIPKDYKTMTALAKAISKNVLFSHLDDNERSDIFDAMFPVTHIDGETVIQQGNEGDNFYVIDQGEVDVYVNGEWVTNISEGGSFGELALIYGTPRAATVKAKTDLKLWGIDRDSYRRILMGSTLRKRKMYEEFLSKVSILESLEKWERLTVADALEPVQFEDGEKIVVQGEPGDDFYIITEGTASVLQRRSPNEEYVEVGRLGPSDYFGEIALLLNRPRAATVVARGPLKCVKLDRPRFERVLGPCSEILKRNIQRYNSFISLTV
UniProt O35547: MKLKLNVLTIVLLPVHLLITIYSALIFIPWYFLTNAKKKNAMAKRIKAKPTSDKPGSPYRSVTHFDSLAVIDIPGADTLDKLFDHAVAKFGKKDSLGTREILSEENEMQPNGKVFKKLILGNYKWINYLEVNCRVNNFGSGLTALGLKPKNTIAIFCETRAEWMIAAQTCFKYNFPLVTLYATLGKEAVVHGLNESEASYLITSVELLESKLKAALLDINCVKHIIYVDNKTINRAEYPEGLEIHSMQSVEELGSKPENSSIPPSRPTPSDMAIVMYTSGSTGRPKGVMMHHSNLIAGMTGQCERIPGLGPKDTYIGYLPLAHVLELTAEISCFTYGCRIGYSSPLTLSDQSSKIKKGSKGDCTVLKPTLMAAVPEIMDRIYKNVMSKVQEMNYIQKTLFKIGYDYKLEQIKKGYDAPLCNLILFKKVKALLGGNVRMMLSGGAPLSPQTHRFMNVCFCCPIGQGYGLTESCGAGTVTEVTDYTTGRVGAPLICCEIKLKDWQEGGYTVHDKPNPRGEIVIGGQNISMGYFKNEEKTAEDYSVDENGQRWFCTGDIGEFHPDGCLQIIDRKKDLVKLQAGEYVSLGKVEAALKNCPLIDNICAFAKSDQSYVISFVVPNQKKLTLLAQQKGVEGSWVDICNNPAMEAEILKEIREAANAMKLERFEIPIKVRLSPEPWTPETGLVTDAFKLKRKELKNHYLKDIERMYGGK
UniProt Q920L2, residues 35-656: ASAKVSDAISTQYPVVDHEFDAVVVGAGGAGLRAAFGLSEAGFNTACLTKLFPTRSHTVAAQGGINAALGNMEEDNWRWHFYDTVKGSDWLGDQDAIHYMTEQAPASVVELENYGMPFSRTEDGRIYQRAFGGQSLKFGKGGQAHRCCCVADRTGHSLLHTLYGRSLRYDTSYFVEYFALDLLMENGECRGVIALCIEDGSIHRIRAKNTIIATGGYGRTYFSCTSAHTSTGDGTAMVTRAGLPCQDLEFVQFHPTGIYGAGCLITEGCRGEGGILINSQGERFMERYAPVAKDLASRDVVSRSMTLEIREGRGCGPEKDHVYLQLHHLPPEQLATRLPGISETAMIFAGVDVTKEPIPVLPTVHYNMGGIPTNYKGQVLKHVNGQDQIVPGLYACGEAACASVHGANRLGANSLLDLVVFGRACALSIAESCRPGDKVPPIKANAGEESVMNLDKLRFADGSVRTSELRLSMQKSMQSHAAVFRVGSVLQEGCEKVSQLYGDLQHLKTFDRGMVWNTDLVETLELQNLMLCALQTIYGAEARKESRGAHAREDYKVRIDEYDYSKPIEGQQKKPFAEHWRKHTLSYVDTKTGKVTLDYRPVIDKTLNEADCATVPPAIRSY
UniProt Q5EB77: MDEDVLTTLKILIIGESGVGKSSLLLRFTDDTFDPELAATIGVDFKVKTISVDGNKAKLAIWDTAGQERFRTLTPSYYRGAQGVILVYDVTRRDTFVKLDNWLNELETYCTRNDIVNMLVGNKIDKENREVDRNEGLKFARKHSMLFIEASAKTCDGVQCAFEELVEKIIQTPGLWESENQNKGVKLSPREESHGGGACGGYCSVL
UniProt Q920R3: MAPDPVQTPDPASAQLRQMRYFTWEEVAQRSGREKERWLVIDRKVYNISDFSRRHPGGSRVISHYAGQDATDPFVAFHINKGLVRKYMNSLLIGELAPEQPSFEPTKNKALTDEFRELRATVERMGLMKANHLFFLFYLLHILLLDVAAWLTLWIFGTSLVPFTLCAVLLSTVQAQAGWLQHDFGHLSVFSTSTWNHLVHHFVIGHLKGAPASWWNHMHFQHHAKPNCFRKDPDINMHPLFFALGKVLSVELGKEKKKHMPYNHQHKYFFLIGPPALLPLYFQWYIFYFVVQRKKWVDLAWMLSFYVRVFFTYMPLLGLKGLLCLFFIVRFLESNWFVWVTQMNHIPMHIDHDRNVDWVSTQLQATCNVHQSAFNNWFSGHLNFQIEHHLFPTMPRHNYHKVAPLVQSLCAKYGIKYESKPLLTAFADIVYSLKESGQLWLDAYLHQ
UniProt P09456: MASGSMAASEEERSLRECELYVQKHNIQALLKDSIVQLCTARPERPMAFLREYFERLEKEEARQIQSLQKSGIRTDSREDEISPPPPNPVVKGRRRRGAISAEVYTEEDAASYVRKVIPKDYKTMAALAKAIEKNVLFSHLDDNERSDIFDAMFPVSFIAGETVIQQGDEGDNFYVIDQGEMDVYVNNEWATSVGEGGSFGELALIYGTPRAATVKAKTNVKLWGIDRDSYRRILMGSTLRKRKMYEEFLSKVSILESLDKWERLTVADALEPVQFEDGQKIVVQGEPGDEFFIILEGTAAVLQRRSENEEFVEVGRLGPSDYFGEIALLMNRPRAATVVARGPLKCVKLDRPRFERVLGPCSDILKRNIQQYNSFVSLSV
UniProt Q64428, residues 37-763: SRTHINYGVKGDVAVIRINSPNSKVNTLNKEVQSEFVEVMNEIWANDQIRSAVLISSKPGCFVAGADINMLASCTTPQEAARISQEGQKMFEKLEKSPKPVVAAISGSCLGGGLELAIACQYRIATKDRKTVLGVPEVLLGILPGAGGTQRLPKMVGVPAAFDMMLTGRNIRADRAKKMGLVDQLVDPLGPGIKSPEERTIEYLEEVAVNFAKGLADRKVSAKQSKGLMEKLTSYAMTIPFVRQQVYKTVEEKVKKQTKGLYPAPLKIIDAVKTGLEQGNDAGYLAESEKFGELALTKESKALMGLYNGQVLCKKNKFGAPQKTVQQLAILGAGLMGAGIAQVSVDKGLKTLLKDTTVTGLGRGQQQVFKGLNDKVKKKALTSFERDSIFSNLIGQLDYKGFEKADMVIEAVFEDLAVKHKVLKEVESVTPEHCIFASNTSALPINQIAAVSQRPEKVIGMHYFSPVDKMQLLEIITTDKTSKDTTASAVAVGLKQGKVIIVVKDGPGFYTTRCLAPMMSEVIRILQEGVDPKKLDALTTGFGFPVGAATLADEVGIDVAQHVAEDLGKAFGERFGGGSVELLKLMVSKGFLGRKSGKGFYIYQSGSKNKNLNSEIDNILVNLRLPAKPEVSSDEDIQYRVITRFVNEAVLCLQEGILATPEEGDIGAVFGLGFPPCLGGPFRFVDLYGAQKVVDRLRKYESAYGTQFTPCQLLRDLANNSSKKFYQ
UniProt Q9Z269: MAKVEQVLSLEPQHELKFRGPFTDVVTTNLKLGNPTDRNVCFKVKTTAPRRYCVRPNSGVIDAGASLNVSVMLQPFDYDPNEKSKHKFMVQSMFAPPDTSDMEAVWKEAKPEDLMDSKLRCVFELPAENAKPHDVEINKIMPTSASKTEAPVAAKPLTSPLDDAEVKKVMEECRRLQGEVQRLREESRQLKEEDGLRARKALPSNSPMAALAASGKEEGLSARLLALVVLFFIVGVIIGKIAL

In PMC12696101:

B1: VAPA (protein, UniProt Q9Z270 1-249)
chain: MASASGAMAKHEQILVLDPPSDLKFKGPFTDVVTTNLKLQNPSDRKVCFKVKTTAPRRYCVRPNSGVIDPGSIVTVSVMLQPFDYDPNEKSKHKFMVQTIFAPPNISDMEAVWKEAKPDELMDSKLRCVFEMPNENDKLNDMEPSKAVPLNASKQDGPLPKPHSVSLNDTETRKLMEECKRLQGEMMKLSEENRHLRDEGLRLRKVAHSDKPGSTSAVSFRDNVTSPLPSLLVVIAAIFIGFFLGKFIL
B2: TAMM41 (enzyme, UniProt D3ZKT0 1-337)
chain: MALQALHSSGVGLRRILAHFPEDLSLAFAYGSAVYRQAGPSAHQENPMLDLVFTVDDPVAWHAMNLKKNWSHYSLLKLLGPRIISSVQNNYGAGVYFNPLIMCDGKLIKYGVISTGTLIEDLLNWNNLYIAGRLQKPVKIVSMNESTVLRAALDKNLKSAVTTACLMLPESFSEEDLFIEIAGLSYSGDFRMVIGEEKAKVLNIVKPNVVHFRELYESILQKDPQMVYKMHQGQLEIDKSPEGQFTQLMTLPRTLQQHINHIMDPPGRNRDVEETLLQVAQDPDCGDVVRLAVSSIVRPSSIRQSTKGLFTAGVKKSVIYSSRKLNKMWKGWVRKTS
B3: Mest (protein, UniProt Q6P5P5 1-335)
chain: MVRRDRLRRMREWWVQVGLLAVPLLAAYLHIPPPQLSPALHSWKTSGKFFTYKGLRIFYQDSVGVVGSPEIVVLLHGFPTSSYDWYKIWEGLTLRFHRVIALDFLGFGFSDKPRPHQYSIFEQASIVESLLRHLGLQNRRINLLSHDYGDIVAQELLYRYKQNRSGRLTIKSLCLSNGGIFPETHRPLLLQKLLKDGGVLSPILTRLMNFFVFSRGLTPVFGPYTRPTESELWDMWAGIRNNDGNLVIDSLLQYINQRKKFRRRWVGALASVTIPIHFIYGPLDPINPYPEFLELYRKTLPRSTVSILDDHISHYPQLEDPMGFLNAYMGFINSF
B4: Copb1 (protein, UniProt P23514 1-953)
chain: MTAAENVCYTLINVPMDSEPPSEISLKNDLEKGDVKSKTEALKKVIIMILNGEKLPGLLMTIIRFVLPLQDHTIKKLLLVFWEIVPKTTPDGRLLHEMILVCDAYRKDLQHPNEFIRGSTLRFLCKLKEAELLEPLMPAIRACLEHRHSYVRRNAVLAIYTIYRNFENLIPDAPELIHDFLVNEKDASCKRNAFMMLIHADQDRALDYLSTCIDQVQTFGDILQLVIVELIYKVCHANPSERARFIRCIYNLLQSSSPAVKYEAAGTLVTLSSAPTAIKAAAQCYIDLIIKESDNNVKLIVLDRLVELKEHPAHERVLQDLVMDILRVLSTPDLEVRKKTLQLALDLVSSRNVEELVIVLKKEVIKTNNVSEHEDTDKYRQLLVRTLHSCSVRFPDMAANVIPVLMEFLSDSNEAAAADVLEFVREAIQRFDNLRMLIVEKMLEVFHAIKSVKIYRGALWILGEYCSTKEDIQSVMTEVRRSLGEIPIVESEIKKEAGELKPEEEITVGPVQKLVTEMGTYATQSALSSSRPTKKEEDRPPLRGFLLDGDFFVAASLATTLTKIALRYVALVQEKKKQNSFVAEAMLLMATILHLGKSSLPKKPITDDDVDRISLCLKVLSECSPLMNDIFNKECRQSLSQMLSAKLEEEKLSQKKESEKRNVTVQPDDPISFMQLTAKNEMNCKEDQFQLSLLAAMGNTQRKEAADPLASKLNKVTQLTGFSDPVYAEAYVHVNQYDIVLDVLVVNQTSDTLQNCTLELATLGDLKLVEKPSPLTLAPHDFANIKANVKVASTENGIIFGNIVYDVSGAASDRNCVVLSDIHIDIMDYIQPATCTDAEFRQMWAEFEWENKVTVNTNVTDLNDYLQHILKSTNMKCLTPEKALSGYCGFMAANLYARSIFGEDALANVSIEKPVHQGPDAAVTGHIRIRAKSQGMALSLGDKINLSQKKTSL
B5: TMEM120A (protein, UniProt Q5HZE2 1-343)
chain: MQSPPPDPLGDCLRNWEDLQQDFQGIQETHRLYRVKLEELTKLQDNCTNSITRQKKRLQELALVLKKCRPSLPSESLEAAQELESQIKERQGLFFDMEAYLPKKNGLYLSLVLGNVNVTLLSKQAKFAYKDEYEKFKLYLTIILIVISFTCRFLLNSRVTDAAFNFLLVWYYCTLTIRESILINNGSRIKGWWVFHHYVSTFLSGVMLTWPDGLMYQKFRNQFLSFSMYQSFVQFLQYYYQSGCLYRLRALGERHTMDLTVEGFQSWMWRGLTFLLPFLFFGHFWQLFNALTLFNLARDPECKEWQVLMCGLPFLLLFLGNFFTTLRVVHQKFHSQQHGSKKD
B6: Chp1 (protein, UniProt P61023 1-195)
chain: MGSRASTLLRDEELEEIKKETGFSHSQITRLYSRFTSLDKGENGTLSREDFQRIPELAINPLGDRIINAFFSEGEDQVNFRGFMRTLAHFRPIEDNEKSKDVNGPEPLNSRSNKLHFAFRLYDLDKDDKISRDELLQVLRMMVGVNISDEQLGSIADRTIQEADQDGDSAISFTEFVKVLEKVDVEQKMSIRFLH
B7: Cds2 (enzyme, UniProt Q91XU8 1-443)
chain: MTELRQRAVREDAPPEDKESESEAKLDGETASDSESRAETAPPPTSIDDTPEVLNRALSNLSSRWKNWWVRGILTMAMIAFFFIIIYLGPMVLMMIVMCVQIKCFHEIITIGYNVYHSYDLPWFRTLSWYFLLCVNYFFYGETVTDYFFTLVQREEPLRILSKYHRFISFTLYLTGFCMFVLSLVKKHYRLQFYMFGWTHVTLLIVVTQSHLVIHNLFEGMIWFIVPISCVICNDIMAYMFGFFFGRTPLIKLSPKKTWEGFIGGFFATVVFGLLLSYVMSGYRCFVCPVEYNNDTNSFTVDCEPSDLFRLQEYNIPGVIQSLVGWKTMRMYPFQIHSALSTFASLIGPFGGFFASGFKRAFKIKDFANTIPGHGGIMDRFDCQYLMATFVNVYIASFIRGPNPSKLIQQFLTLRPDQQLHIFNTLKSHLTDKGILMSALEEE
B8: Apgat4 (enzyme, UniProt Q924S1 1-378)
chain: MDLIGLLKSQFLCHLVFCYVFIASGLIVNAIQLCTLVIWPINKQLFRKINARLCYCVSSQLVMLLEWWSGTECTIYTDPKASPHYGKENAIVVLNHKFEIDFLCGWSLAERLGILGNSKVLAKKELAYVPIIGWMWYFVEMIFCTRKWEQDRQTVAKSLLHLRDYPEKYLFLIHCEGTRFTEKKHQISMQVAQAKGLPSLKHHLLPRTKGFAITVKCLRDVVPAVYDCTLNFRNNENPTLLGVLNGKKYHADCYVRRIPMEDIPEDEDKCSAWLHKLYQEKDAFQEEYYRTGVFPETPWVPPRRPWSLVNWLFWASLLLYPFFQFLVSMVSSGSSVTLASLVLIFCMASMGVRWMIGVTEIDKGSAYGNIDNKRKQTD
B9: HADHB (enzyme, UniProt Q60587 35-475)
chain: SAPAVQTKSKKTLAKPNLKNIVVVEGVRIPFLLSGTSYKDLMPHDLARAALSGLLYRTNIPKDVVDYIIFGTVIQEVKTSNVAREAALGAGFSDKTPAHTVTMACISSNQAMTTAVGLIASGQCDVVVAGGVELMSDVPIRHSRNMRKMMLDLNKAKTLAQRLSLLTKFRLNFLSPELPAVAEFSTNETMGHSADRLAAAFAVSRMEQDKYALRSHSLAKKAQDEGHLSDIVPFKVPGKDTVSKDNGIRPSSLEQMAKLKPAFIKPYGTVTAANSSFLTDGASAMLIMSEDRALAMGYKPKAYLRDFIYVSQDPKDQLLLGPTYATPKVLEKAGLTMNDIDAFEFHEAFSGQILANFKAMDSDWFAQNYMGRKTKVGAPPLEKFNIWGGSLSLGHPFGATGCRLVMAAANRLRKDGGQYALVAACAAGGQGHAMIVEAYPK
B10: Bdh1 (enzyme, UniProt P29147 47-343)
chain: TSQADAASGKAVLVTGCDSGFGFSLAKHLHSKGFLVFAGCLLKDKGDAGVRELDSLKSDRLRTIQLNVCNSEEVEKAVETVRSGLKDPEKGMWGLVNNAGISTFGEVEFTSMETYKEVAEVNLWGTVRTTKSFLPLLRRAKGRVVNISSMLGRMANPARSPYCITKFGVEAFSDCLRYEMHPLGVKVSVVEPGNFIAATSLYSPERIQAIAKKMWDELPEVVRKDYGKKYFDEKIAKMETYCNSGSTDTSSVINAVTHALTAATPYTRYHPMDYYWWLRMQVMTHFPGAISDKIYIH
B11: voltage-dependent anion-selective channel protein 2 (VDAC2) (protein, UniProt P81155 1-295)
chain: MAECCVPVCQRPICIPPPYADLGKAARDIFNKGFGFGLVKLDVKTKSCSGVEFSTSGSSNTDTGKVSGTLETKYKWCEYGLTFTEKWNTDNTLGTEIAIEDQICQGLKLTFDTTFSPNTGKKSGKIKSAYKRECINLGCDVDFDFAGPAIHGSAVFGYEGWLAGYQMTFDSAKSKLTRSNFAVGYRTGDFQLHTNVNNGTEFGGSIYQKVCEDFDTSVNLAWTSGTNCTRFGIAAKYQLDPTASISAKVNNSSLIGVGYTQTLRPGVKLTLSALVDGKSFNAGGHKLGLALELEA

These molecules were tested against SNAP/FLAG-tagged human GLP-1R (human) (UniProt P43220) (assay: affinity purification with mass spectrometry; anti-FLAG M2 agarose beads, overnight at 4 °C, on lysates (50 mM Tris-HCl pH 7.4, 150 mM NaCl, 1% Triton X-100, 1 mM EDTA) of INS-1 832/3 SNAP/FLAG-hGLP-1R cells treated with vehicle or 100 nM GLP-1RA (GLP-1, exendin-4, exendin-F1 or exendin-D3) for 5 minutes; LC-MS/MS, label-free quantification normalised to hGLP-1R).

PKA-RIβ (from UniProt P81377 1-381) was tested. Which binding did it give?
The binding was “binds”.

Which binding does the source give for “Acsl4 (from UniProt O35547 1-711) (enzyme)” here?
Its binding is “binds”.

Which binding does the source give for “SDHA (from UniProt Q920L2 35-656) (enzyme)” here?
The binding was “binds”.

Rab18 (from UniProt Q5EB77 1-206) was tested. Which binding did it give?
The binding was “binds”.

How did the binding turn out when “Fads1 (from UniProt Q920R3 1-447) (enzyme)” was run?
The binding was “binds”.

How did the binding turn out when PKA-RIα (from UniProt P09456 1-381) was run?
Its binding is “binds”.

“HADHA (from UniProt Q64428 37-763) (enzyme)” was tested. Which binding did it give?
Its binding is “binds”.

With “endogenous VAPB (INS-1 832/3 cells) (from UniProt Q9Z269 1-243)” as the molecule, how does the binding read?
Its binding is “binds”.

Which binding does the source give for B1 here?
The binding was “binds”.

For B2, which binding is on record?
Its binding is “binds”.

For B3, which binding is on record?
Its binding is “binds”.

With B4 as the molecule, how does the binding read?
Its binding is “binds”.

B5 was tested. Which binding did it give?
The binding was “binds”.

Which binding does the source give for B6 here?
Its binding is “binds”.

How did the binding turn out when B7 was run?
The binding was “binds”.

For B8, which binding is on record?
Its binding is “binds”.

B9 was tested. Which binding did it give?
Its binding is “binds”.

B10 was tested. Which binding did it give?
The binding was “binds”.

For B11, which binding is on record?
Its binding is “binds”.

Results are given in words; binding and its absence hold for the method and conditions named. Binding seen in cells or lysates may run through a third protein. A yes stands for co-enrichment or nearness to the bait. Other partners may have been found. Where a sequence is shown, tags or fusion partners need not be part of it.
